Experimental data: patent US20230398232A1, “Composition and Use of Alternatively Formatted Anti-Mesothelin Antibodies for the Treatment of Cancer” (Navrogen, Inc., priority 2020, published 2023)
No constants are given. Whether binding was seen depends on the method and setting. Some entries that bind do so weakly or less than the wild type.

By UniProt entry, the sequences of proteins in these tests, tags left out. Where a name states a change or a piece, a line headed by the entry shows the natural chain unless it says otherwise. Chains listed by the source or under a name are the forms on record and can include a tag or linker.
recombinant human mesothelin protein (Q13421, form named): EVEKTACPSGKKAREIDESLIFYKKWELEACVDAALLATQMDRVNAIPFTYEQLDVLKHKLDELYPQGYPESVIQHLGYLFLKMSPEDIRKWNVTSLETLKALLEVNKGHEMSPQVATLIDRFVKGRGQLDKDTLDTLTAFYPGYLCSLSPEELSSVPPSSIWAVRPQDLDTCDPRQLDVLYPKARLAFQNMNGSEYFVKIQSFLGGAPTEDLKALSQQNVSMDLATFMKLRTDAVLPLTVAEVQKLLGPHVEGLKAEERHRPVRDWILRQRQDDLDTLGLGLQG

Target: recombinant human mesothelin protein (human) (UniProt Q13421)
Assay: ELISA, plate coated with 1 µg/mL mesothelin, 2.5 µg/mL antibody

- binding: binds
B1: MES-1 antibody (antibody, human IgG1, kappa, V domains shown)
VH: EVQLVESGGGLVQPGGSLRLSCAASGFDLGFYFYACWVRQAPGKGLEWVSCIYTAGSGSTYYASWAKGRFTISRDNSKNTLYLQMNSLRAEDTAVYYCARSTANTRSTYYLNLWGQGTLVTVSS
VL: DIQMTQSPSSLSASVGDRVTITCQASQRISSYLSWYQQKPGKVPKLLIYGASTLASGVPSRFSGSGSGTDFTLTISSLQPEDVATYYCQSYAYFDSNNWHAFGGGTKVEIKR
